Experimental data published in PMC8368002, “Crystal structure of the INTS3/INTS6 complex reveals the functional importance of INTS3 dimerization in DSB repair” (Cell Discovery, 2020).
Weaker means in comparison with the reference protein, sequence or condition of that experiment.

Legend:
[1] = system: INTS3(1-995) del832-872 + hSSB1; test: EMSA; settings: 1 mM MgCl2, reduced vs INTS3(1-995)/hSSB1; EMSA: 50 mM NaCl, 20 mM HEPES pH 7.5, 1 mM MgCl2, 0.5 mM EDTA, 0.2 mM DTT, on ice 1 h; recombinant protein; single-stranded DNA
[2] = system: INTS3(1-995) del791-831 + hSSB1; test: EMSA; settings: 1 mM MgCl2, reduced vs INTS3(1-995)/hSSB1; EMSA: 50 mM NaCl, 20 mM HEPES pH 7.5, 1 mM MgCl2, 0.5 mM EDTA, 0.2 mM DTT, on ice 1 h; recombinant protein; single-stranded DNA

TTTTTTTTTTTTTTTTTTTTTTTTTTTTTTTTTTTTTTTTTTTTTTTT [dT48 (FAM)]
binding result [1]: binds more weakly | binding result [2]: binds more weakly
